Reference: US20250283871A1, “COMPOSITIONS AND METHODS FOR MODULATING THE INTERACTION BETWEEN SS18-SSX FUSION ONCOPROTEIN AND NUCLEOSOMES” (Dana-Farber Cancer Institute, Inc., priority 2020, published 2025)

System: BAF complex subunits and histone proteins
Experiment: Mass spectrometry proteomics of purified HA-SS18 WT and HA-SS18-SSX1 complexes (Tables 5A-5E)
Parameters: species or system human
Conditions: HEK-293T
[1] = HA-SS18SSX1_CHR_peptides: proteins found in HA-SS18-SSX1 BAF complex purification from solubilized chromatin (CHR)
[2] = HA-SS18WT_CHR_peptides: HA-SS18 WT purification from nuclease-treated solubilized chromatin (CHR), label = protein identified
[3] = HA-SS18SSX1 purification, NE (soluble nuclear extract) fraction, peptides per identified protein
[4] = HA-SS18WT_CHR_peptides: protein identified in HA-SS18 WT BAF complex purification from nuclease-treated solubilized chromatin (CHR)
[5] = HA-SS18WT_NE_peptides: HA-SS18 WT complexes purified from nuclear extract (NE), label = protein identified (Gene Symbol)

| Molecule | Total (peptides) [1] | Unique (peptides) [1] | Total (peptides) [2] | Unique (peptides) [2] | Total (total peptides) [3] | Unique (unique peptides) [3] | Total (total peptides) [4] | Unique (unique peptides) [4] | Total (peptides) [5] | Unique (peptides) [5] |
| --- | --- | --- | --- | --- | --- | --- | --- | --- | --- | --- |
| PAPD5 (protein, UniProt Q8NDF8 1-572, looked up) Terminal …: MYRSGERLLGSHALPAEQRDFLPLETTNNNNNHHQPGAWARRAGSSASSPPSASSSPHPSAAVPAADPADSASGSSNKRKRDNKASGGRAAGGGRADGGGVVYSGTPWKRRNYNQGVVGLHEEISDFYEYMSPRPEEEKMRMEVVNRIESVIKELWPSADVQIFGSFKTGLYLPTSDIDLVVFGKWENLPLWTLEEALRKHKVADEDSVKVLDKATVPIIKLTDSFTEVKVDISFNVQNGVRAADLIKDFTKKYPVLPYLVLVLKQFLLQRDLNEVFTGGIGSYSLFLMAVSFLQLHPREDACIPNTNYGVLLIEFFELYGRHFNYLKTGIRIKDGGSYVAKDEVQKNMLDGYRPSMLYIEDPLQPGNDVGRSSYGAMQVKQAFDYAYVVLSHAVSPIAKYYPNNETESILGRIIRVTDEVATYRDWISKQWGLKNRPEPSCNGPVSSSSATQSSSSDVDSDATPCKTPKQLLCRPSTGNRVGSQDVSLESSQAVGKMQSTQTTNTSNSTNKSQHGSARLFRSSSKGFQGTTQTSHGSLMTNKQHQGKSNNQYYHGKKRKHKRDAPLSDLCR | 1 | 1 | – | – | – | – | – | – | – | – |
| PRDX2 (protein, UniProt P32119 2-198, looked up) Peroxiredoxin-2: ASGNARIGKPAPDFKATAVVDGAFKEVKLSDYKGKYVVLFFYPLDFTFVCPTEIIAFSNRAEDFRKLGCEVLGVSVDSQFTHLAWINTPRKEGGLGPLNIPLLADVTRRLSEDYGVLKTDEGIAYRGLFIIDGKGVLRQITVNDLPVGRSVDEALRLVQAFQYTDEHGEVCPAGWKPGSDTIKPNVDDSKEYFSKHN | 1 | 1 | 3 | 3 | – | – | – | – | – | – |
| TMEM209 (protein, UniProt Q96SK2 1-561, looked up) Transmembrane protein 209: MMQGEAHPSASLIDRTIKMRKETEARKVVLAWGLLNVSMAGMIYTEMTGKLISSYYNVTYWPLWYIELALASLFSLNALFDFWRYFKYTVAPTSLVVSPGQQTLLGLKTAVVQTTPPHDLAATQIPPAPPSPSIQGQSVLSYSPSRSPSTSPKFTTSCMTGYSPQLQGLSSGGSGSYSPGVTYSPVSGYNKLASFSPSPPSPYPTTVGPVESSGLRSRYRSSPTVYNSPTDKEDYMTDLRTLDTFLRSEEEKQHRVKLGSPDSTSPSSSPTFWNYSRSMGDYAQTLKKFQYQLACRSQAPCANKDEADLSSKQAAEEVWARVAMNRQLLDHMDSWTAKFRNWINETILVPLVQEIESVSTQMRRMGCPELQIGEASITSLKQAALVKAPLIPTLNTIVQYLDLTPNQEYLFERIKELSQGGCMSSFRWNRGGDFKGRKWDTDLPTDSAIIMHVFCTYLDSRLPPHPKYPDGKTFTSQHFVQTPNKPDVTNENVFCIYQSAINPPHYELIYQRHVYNLPKGRNNMFHTLLMFLYIIKTKESGMLGRVNLGLSGVNILWIFGE | 1 | 1 | – | – | 4 | 4 | 1 | 1 | 3 | 3 |
| HMG20A (protein, UniProt Q9NP66 1-347, looked up) High mobility group protein …: MENLMTSSTLPPLFADEDGSKESNDLATTGLNHPEVPYSSGATSSTNNPEFVEDLSQGQLLQSESSNAAEGNEQRHEDEQRSKRGGWSKGRKRKKPLRDSNAPKSPLTGYVRFMNERREQLRAKRPEVPFPEITRMLGNEWSKLPPEEKQRYLDEADRDKERYMKELEQYQKTEAYKVFSRKTQDRQKGKSHRQDAARQATHDHEKETEVKERSVFDIPIFTEEFLNHSKAREAELRQLRKSNMEFEERNAALQKHVESMRTAVEKLEVDVIQERSRNTVLQQHLETLRQVLTSSFASMPLPGSGETPTVDTIDSYMNRLHSIILANPQDNENFIATVREVVNRLDR | 1 | 1 | – | – | – | – | – | – | – | – |
